At least one compound was matched to its structure with a doubt left.
Test system: C57BL/6 (B6) mice
Test: MOG-peptide induced Experimental Autoimmune Encephalitis (EAE) model
Assay type: in vivo, mouse
Conditions: 2 mg/Kg and 0.2 mg/Kg i.p. 3 times a week to day 48, followed to day 60, control mice with EAE died by day 50

SMILES: CC[C@H](C)[C@H](NC(=O)[C@H](CCCCN)NC(=O)[C@H](CCC(=O)O)NC(=O)[C@H](CCCCN)NC(=O)[C@H](CO)NC(=O)[C@H](CCCCN)NC(=O)[C@H](CCCNC(=N)N)NC(=O)[C@H](Cc1ccccc1)NC(=O)[C@H](Cc1ccccc1)NC(=O)[C@H](CC(=O)O)NC(=O)CNC(=O)[C@H](CC(C)C)NC(=O)[C@@H](N)CC(C)C)C(=O)NCC(=O)N[C@@H](CCCCN)C(=O)N[C@@H](CCC(=O)O)C(=O)N[C@@H](Cc1ccccc1)C(=O)N[C@@H](CCCCN)C(=O)N[C@@H](CCCNC(=N)N)C(=O)N[C@H](C(=O)N[C@H](C(=O)N[C@@H](CCC(N)=O)C(=O)N[C@@H](CCCNC(=N)N)C(=O)N[C@H](C(=O)N[C@@H](CCCCN)C(=O)N[C@@H](CC(=O)O)C(=O)N[C@@H](Cc1ccccc1)C(=O)N[C@@H](CC(C)C)C(=O)N[C@@H](CCCNC(=N)N)C(=O)N[C@@H](CC(N)=O)C(=O)N[C@@H](CC(C)C)C(=O)N[C@H](C(=O)N1CCC[C@H]1C(=O)N[C@@H](CCCNC(=N)N)C(=O)N[C@H](C(=O)N[C@@H](CCC(=O)O)C(=O)N[C@@H](CO)C(=O)O)[C@@H](C)O)C(C)C)[C@@H](C)CC)C(C)C)[C@@H](C)CC [mCRAMP]
- death from EAE (listed as Cathelicidin): none of the mice in either of the treatment groups died
- death from EAE (listed as Cathelicidin peptide): protected mice from fatal EAE

From patent US8202835B2, “Disease treatment via antimicrobial peptides or their inhibitors” (priority 2005, dated 2012)
